Results as given in the supplement of paper PMC8728848.
The list shows a part of the results.

How the values were obtained:
Assay in all cases: glycan array binding signal (z-score within array); higher = stronger binding
Conditions in all cases: glycan notation: IUPAC condensed, linker removed
[1] = target: Neu5Ac(a2-3)Gal(b1-4)GlcNAc(b1-6)GalNAc
In short: (§1)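 Glycan array data were curated from 3228 arrays in the Consortium for Functional Glycomics database and kept only where the protein sequence was available. Glycan names were converted to IUPAC-condensed notation, and columns mapping to the same glycan were averaged. The binding signal is a within-array Z-score, averaged across arrays of the same protein sequence at different concentrations or buffers and across linkers. Negative Z-scores can be read as non-binding.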

[2] = target: Neu5Ac(a2-3)Gal(b1-4)GlcNAc(b1-6)[Gal(b1-3)]GalNAc
In short: as §1

[3] = target: Neu5Ac(a2-3)Gal(b1-4)GlcNAc(b1-6)[Neu5Ac(a2-3)Gal(b1-3)]GalNAc
In short: as §1

[4] = target: Neu5Ac(a2-3)Gal(b1-4)GlcNAc6S
In short: as §1

[5] = target: Neu5Ac(a2-3)Gal(b1-4)[Fuc(a1-3)]GlcNAc
In short: as §1

[6] = target: Neu5Ac(a2-3)Gal(b1-4)[Fuc(a1-3)]GlcNAc(b1-2)Man
In short: as §1

[7] = target: Neu5Ac(a2-3)Gal(b1-4)[Fuc(a1-3)]GlcNAc(b1-3)Gal
In short: as §1

[8] = target: Neu5Ac(a2-3)Gal(b1-4)[Fuc(a1-3)]GlcNAc(b1-3)Gal(b1-4)GlcNAc
In short: as §1

[9] = target: Neu5Ac(a2-3)Gal(b1-4)[Fuc(a1-3)]GlcNAc(b1-3)Gal(b1-4)[Fuc(a1-3)]GlcNAc(b1-3)Gal(b1-4)[Fuc(a1-3)]GlcNAc
In short: as §1

[10] = target: Neu5Ac(a2-3)Gal(b1-4)[Fuc(a1-3)]GlcNAc(b1-3)GalNAc
In short: as §1

[11] = target: Neu5Ac(a2-3)Gal(b1-4)[Fuc(a1-3)]GlcNAc(b1-6)[Gal(b1-3)]GalNAc
In short: as §1

[12] = target: Neu5Ac(a2-3)Gal(b1-4)[Fuc(a1-3)]GlcNAc(b1-6)[Neu5Ac(a2-3)Gal(b1-3)]GalNAc
In short: as §1

[13] = target: Neu5Ac(a2-3)Gal(b1-4)[Fuc(a1-3)]GlcNAc6S
In short: as §1

[14] = target: Neu5Ac(a2-3)Gal6S(b1-4)GlcNAc
In short: as §1

[15] = target: Neu5Ac(a2-3)Gal6S(b1-4)[Fuc(a1-3)]GlcNAc
In short: as §1

Neu5Ac(a2-3)GalNAc = target: Neu5Ac(a2-3)GalNAc
In short: as §1

[16] = target: Neu5Ac(a2-3)GalNAc(b1-4)GlcNAc
In short: as §1

[17] = target: Neu5Ac(a2-3)[GalNAc(b1-4)]Gal(b1-4)Glc
In short: as §1

[18] = target: Neu5Ac(a2-3)[GalNAc(b1-4)]Gal(b1-4)GlcNAc
In short: as §1

[19] = target: Neu5Ac(a2-3)[GalNAc(b1-4)]Gal(b1-4)GlcNAc(b1-3)GalNAc
In short: as §1

[20] = target: Neu5Ac(a2-3)[Neu5Ac(a2-6)]GalNAc
In short: as §1

Neu5Ac(a2-6)Gal = target: Neu5Ac(a2-6)Gal
In short: as §1

[21] = target: Neu5Ac(a2-6)Gal(b1-3)GlcNAc(b1-3)[Gal(b1-4)GlcNAc(b1-6)]Gal(b1-4)Glc
In short: as §1

Neu5Ac(a2-6)Gal(b1-4)Glc = target: Neu5Ac(a2-6)Gal(b1-4)Glc
In short: as §1

[22] = target: Neu5Ac(a2-6)Gal(b1-4)GlcNAc
In short: as §1

[23] = target: Neu5Ac(a2-6)Gal(b1-4)GlcNAc(b1-2)Man
In short: as §1

[24] = target: Neu5Ac(a2-6)Gal(b1-4)GlcNAc(b1-2)Man(a1-3)Man(b1-4)GlcNAc(b1-4)GlcNAc
In short: as §1

[25] = target: Neu5Ac(a2-6)Gal(b1-4)GlcNAc(b1-2)Man(a1-3)[Gal(b1-4)GlcNAc(b1-2)Man(a1-6)]Man(b1-4)GlcNAc(b1-4)GlcNAc
In short: as §1

[26] = target: Neu5Ac(a2-6)Gal(b1-4)GlcNAc(b1-2)Man(a1-3)[GlcNAc(b1-2)Man(a1-6)]Man(b1-4)GlcNAc(b1-4)GlcNAc
In short: as §1

[27] = target: Neu5Ac(a2-6)Gal(b1-4)GlcNAc(b1-2)Man(a1-3)[GlcNAc(b1-4)][Neu5Ac(a2-6)Gal(b1-4)GlcNAc(b1-2)Man(a1-6)]Man(b1-4)GlcNAc(b1-4)GlcNAc
In short: as §1

[28] = target: Neu5Ac(a2-6)Gal(b1-4)GlcNAc(b1-2)Man(a1-3)[Man(a1-6)]Man(b1-4)GlcNAc(b1-4)GlcNAc
In short: as §1

[29] = target: Neu5Ac(a2-6)Gal(b1-4)GlcNAc(b1-2)Man(a1-3)[Neu5Ac(a2-3)Gal(b1-4)GlcNAc(b1-2)Man(a1-6)]Man(b1-4)GlcNAc(b1-4)GlcNAc
In short: as §1

[30] = target: Neu5Ac(a2-6)Gal(b1-4)GlcNAc(b1-2)Man(a1-3)[Neu5Ac(a2-6)Gal(b1-4)GlcNAc(b1-2)Man(a1-6)]Man(b1-4)GlcNAc(b1-4)GlcNAc
In short: as §1

[31] = target: Neu5Ac(a2-6)Gal(b1-4)GlcNAc(b1-2)Man(a1-3)[Neu5Ac(a2-6)Gal(b1-4)GlcNAc(b1-2)Man(a1-6)]Man(b1-4)GlcNAc(b1-4)[Fuc(a1-6)]GlcNAc
In short: as §1

[32] = target: Neu5Ac(a2-6)Gal(b1-4)GlcNAc(b1-2)Man(a1-6)Man(b1-4)GlcNAc(b1-4)GlcNAc
In short: as §1

[33] = target: Neu5Ac(a2-6)Gal(b1-4)GlcNAc(b1-2)Man(a1-6)[Gal(b1-4)GlcNAc(b1-2)Man(a1-3)]Man(b1-4)GlcNAc(b1-4)GlcNAc
In short: as §1

[34] = target: Neu5Ac(a2-6)Gal(b1-4)GlcNAc(b1-2)Man(a1-6)[GlcNAc(b1-2)Man(a1-3)]Man(b1-4)GlcNAc(b1-4)GlcNAc
In short: as §1

[35] = target: Neu5Ac(a2-6)Gal(b1-4)GlcNAc(b1-2)Man(a1-6)[Man(a1-3)]Man(b1-4)GlcNAc(b1-4)GlcNAc
In short: as §1

[36] = target: Neu5Ac(a2-6)Gal(b1-4)GlcNAc(b1-2)[Neu5Ac(a2-6)Gal(b1-4)GlcNAc(b1-4)]Man(a1-3)[GlcNAc(b1-4)][Neu5Ac(a2-6)Gal(b1-4)GlcNAc(b1-2)[Neu5Ac(a2-6)Gal(b1-4)GlcNAc(b1-6)]Man(a1-6)]Man(b1-4)GlcNAc(b1-4)GlcNAc
In short: as §1

[37] = target: Neu5Ac(a2-6)Gal(b1-4)GlcNAc(b1-2)[Neu5Ac(a2-6)Gal(b1-4)GlcNAc(b1-4)]Man(a1-3)[GlcNAc(b1-4)][Neu5Ac(a2-6)Gal(b1-4)GlcNAc(b1-4)Man(a1-6)]Man(b1-4)GlcNAc(b1-4)GlcNAc
In short: as §1

[38] = target: Neu5Ac(a2-6)Gal(b1-4)GlcNAc(b1-2)[Neu5Ac(a2-6)Gal(b1-4)GlcNAc(b1-6)]Man(a1-6)[Neu5Ac(a2-6)Gal(b1-4)GlcNAc(b1-2)Man(a1-3)][GlcNAc(b1-4)]Man(b1-4)GlcNAc(b1-4)GlcNAc
In short: as §1

[39] = target: Neu5Ac(a2-6)Gal(b1-4)GlcNAc(b1-3)Gal(b1-3)GlcNAc
In short: as §1

[40] = target: Neu5Ac(a2-6)Gal(b1-4)GlcNAc(b1-3)Gal(b1-4)GlcNAc
In short: as §1

[41] = target: Neu5Ac(a2-6)Gal(b1-4)GlcNAc(b1-3)Gal(b1-4)GlcNAc(b1-2)Man(a1-3)[Neu5Ac(a2-6)Gal(b1-4)GlcNAc(b1-3)Gal(b1-4)GlcNAc(b1-2)Man(a1-6)]GalNAc
In short: as §1

[42] = target: Neu5Ac(a2-6)Gal(b1-4)GlcNAc(b1-3)Gal(b1-4)GlcNAc(b1-3)Gal(b1-4)GlcNAc
In short: as §1

B1: EUL D1A first (Oryza sativa) (protein)
chain: MFGFGHHHNQAPAAPSDPNQIFKIFCRANENYCLTVRDSAVVLAPVNPKDEHQHWFKDMRFSTKVKDGEGMPAFALVNKATGLAVKHSLGQSHPVKLVPFNPEYEDASVLWTESKDVGKGFRCIRMVNNTRLNLDAFHGDKDHGGVRDGTTVVLWEWCKGDNQSWKILPWGPEAHSSSPGAATILEQKLISEEDLNSAVDHHHHHH
- glycan array binding signal (z-score) [1]: -0.841
- glycan array binding signal (z-score) [2]: 0.081
- glycan array binding signal (z-score) [3]: -0.446
- glycan array binding signal (z-score) [4]: -1.5
- glycan array binding signal (z-score) [5]: -0.144
- glycan array binding signal (z-score) [6]: -0.26
- glycan array binding signal (z-score) [7]: -0.866
- glycan array binding signal (z-score) [8]: 0.491
- glycan array binding signal (z-score) [9]: -0.461
- glycan array binding signal (z-score) [10]: 3.45
- glycan array binding signal (z-score) [11]: 1.06
- glycan array binding signal (z-score) [12]: 1.34
- glycan array binding signal (z-score) [13]: -0.026
- glycan array binding signal (z-score) [14]: 0.281
- glycan array binding signal (z-score) [15]: 0.197
- glycan array binding signal (z-score) (Neu5Ac(a2-3)GalNAc): 0.123
- glycan array binding signal (z-score) [16]: -0.654
- glycan array binding signal (z-score) [17]: -1.33
- glycan array binding signal (z-score) [18]: -0.072
- glycan array binding signal (z-score) [19]: 1.09
- glycan array binding signal (z-score) [20]: -0.451
- glycan array binding signal (z-score) (Neu5Ac(a2-6)Gal): 0.153
- glycan array binding signal (z-score) [21]: -2.08
- glycan array binding signal (z-score) (Neu5Ac(a2-6)Gal(b1-4)Glc): -0.721
- glycan array binding signal (z-score) [22]: 0.529
- glycan array binding signal (z-score) [23]: 0.222
- glycan array binding signal (z-score) [24]: 0.015
- glycan array binding signal (z-score) [25]: -0.441
- glycan array binding signal (z-score) [26]: -0.653
- glycan array binding signal (z-score) [27]: -1.16
- glycan array binding signal (z-score) [28]: -0.607
- glycan array binding signal (z-score) [29]: 0.015
- glycan array binding signal (z-score) [30]: -0.389
- glycan array binding signal (z-score) [31]: -0.576
- glycan array binding signal (z-score) [32]: 0.35
- glycan array binding signal (z-score) [33]: -0.694
- glycan array binding signal (z-score) [34]: -0.281
- glycan array binding signal (z-score) [35]: -0.647
- glycan array binding signal (z-score) [36]: 0.256
- glycan array binding signal (z-score) [37]: -1.3
- glycan array binding signal (z-score) [38]: 0.533
- glycan array binding signal (z-score) [39]: -0.373
- glycan array binding signal (z-score) [40]: -0.318
- glycan array binding signal (z-score) [41]: -0.445
- glycan array binding signal (z-score) [42]: -0.808
